{"sequences": {"note": "By UniProt entry, the sequences of proteins in these tests, tags left out.", "UniProt Q66125, whole entry": "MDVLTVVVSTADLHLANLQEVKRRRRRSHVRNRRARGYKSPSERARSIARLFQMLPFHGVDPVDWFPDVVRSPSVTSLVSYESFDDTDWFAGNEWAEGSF", "UniProt P17769, whole entry": "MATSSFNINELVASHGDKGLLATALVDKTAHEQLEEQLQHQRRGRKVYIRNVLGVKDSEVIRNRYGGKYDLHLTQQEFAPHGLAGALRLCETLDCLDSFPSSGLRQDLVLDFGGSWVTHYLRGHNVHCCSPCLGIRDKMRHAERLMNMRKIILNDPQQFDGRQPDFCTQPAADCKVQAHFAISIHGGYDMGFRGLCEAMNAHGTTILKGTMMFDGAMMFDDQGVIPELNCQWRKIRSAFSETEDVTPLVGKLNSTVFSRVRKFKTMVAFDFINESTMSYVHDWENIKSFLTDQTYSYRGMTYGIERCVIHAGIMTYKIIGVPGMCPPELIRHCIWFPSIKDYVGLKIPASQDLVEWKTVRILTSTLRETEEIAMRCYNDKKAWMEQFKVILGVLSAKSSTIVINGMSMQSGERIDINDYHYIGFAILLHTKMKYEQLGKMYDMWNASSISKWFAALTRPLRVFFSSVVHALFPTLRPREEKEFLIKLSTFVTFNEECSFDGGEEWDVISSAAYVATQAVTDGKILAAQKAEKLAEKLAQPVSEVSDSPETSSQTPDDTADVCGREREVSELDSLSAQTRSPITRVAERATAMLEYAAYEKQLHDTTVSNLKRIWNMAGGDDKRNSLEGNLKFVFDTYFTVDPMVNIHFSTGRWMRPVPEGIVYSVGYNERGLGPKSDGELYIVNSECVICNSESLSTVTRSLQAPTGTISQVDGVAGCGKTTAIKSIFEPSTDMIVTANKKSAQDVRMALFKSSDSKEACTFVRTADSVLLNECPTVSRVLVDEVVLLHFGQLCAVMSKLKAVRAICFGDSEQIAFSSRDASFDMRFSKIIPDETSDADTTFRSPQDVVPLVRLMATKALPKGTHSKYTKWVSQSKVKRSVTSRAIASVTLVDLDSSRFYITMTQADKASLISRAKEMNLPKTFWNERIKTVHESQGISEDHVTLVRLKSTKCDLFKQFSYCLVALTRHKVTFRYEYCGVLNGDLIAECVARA"}, "source": "paper doi:10.1101/2023.08.31.555694", "key": {"[1]": {"target": "LS-CMV 2b protein, C-terminal RFP fusion (cucumber mosaic virus, strain LS) (UniProt Q66125)", "test": "co-IP"}, "[2]": {"target": "T1, GFP-AGO1 fusion protein (Arabidopsis thaliana Argonaute 1) (A. thaliana) (UniProt O04379)", "T1 sequence": "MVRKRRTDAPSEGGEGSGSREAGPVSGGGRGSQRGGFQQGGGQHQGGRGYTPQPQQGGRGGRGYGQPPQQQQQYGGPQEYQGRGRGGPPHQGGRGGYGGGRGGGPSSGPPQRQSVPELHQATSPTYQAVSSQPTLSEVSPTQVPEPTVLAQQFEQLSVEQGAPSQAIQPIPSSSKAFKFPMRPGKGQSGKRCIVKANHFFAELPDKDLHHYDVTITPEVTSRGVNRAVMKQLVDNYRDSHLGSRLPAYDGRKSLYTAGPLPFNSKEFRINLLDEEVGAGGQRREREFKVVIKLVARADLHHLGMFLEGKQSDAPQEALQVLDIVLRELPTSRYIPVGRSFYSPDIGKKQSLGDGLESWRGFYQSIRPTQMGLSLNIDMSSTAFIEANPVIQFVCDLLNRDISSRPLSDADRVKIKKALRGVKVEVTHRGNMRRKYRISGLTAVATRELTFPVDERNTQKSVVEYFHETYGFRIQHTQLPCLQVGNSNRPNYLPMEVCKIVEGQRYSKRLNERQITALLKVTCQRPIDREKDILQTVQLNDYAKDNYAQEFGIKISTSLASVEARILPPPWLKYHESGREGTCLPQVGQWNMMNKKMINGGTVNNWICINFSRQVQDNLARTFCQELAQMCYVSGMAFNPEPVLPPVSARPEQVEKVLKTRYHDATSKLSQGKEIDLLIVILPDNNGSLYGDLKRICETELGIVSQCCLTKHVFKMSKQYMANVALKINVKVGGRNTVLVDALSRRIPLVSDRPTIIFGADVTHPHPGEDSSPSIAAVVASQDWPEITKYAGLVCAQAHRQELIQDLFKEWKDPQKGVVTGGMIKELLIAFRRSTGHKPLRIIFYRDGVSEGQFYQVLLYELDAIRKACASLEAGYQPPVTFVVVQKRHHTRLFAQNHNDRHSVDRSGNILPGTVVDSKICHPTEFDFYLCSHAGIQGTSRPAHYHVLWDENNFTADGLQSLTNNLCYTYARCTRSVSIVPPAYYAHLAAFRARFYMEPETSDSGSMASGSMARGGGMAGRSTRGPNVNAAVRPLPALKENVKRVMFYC", "test": "co-IP"}, "[3]": {"target": "LS-CMV 2b protein, split-YFP fusion for BiFC (cucumber mosaic virus, strain LS) (UniProt Q66125)", "test": "split reporter"}, "[4]": {"target": "T2, Argonaute 1 protein-yellow fluorescent protein N-proximal domain fusion protein (A. thaliana) (UniProt O04379)", "T2 sequence": "T1 sequence", "test": "split reporter"}, "[5]": {"target": "Fny-CMV 1a protein, YFP N-proximal domain fusion for BiFC (cucumber mosaic virus, strain Fny) (UniProt P17769)", "test": "split reporter"}}, "note": "These are yes or no findings as the source states them, for the method shown. Binding seen in cells or lysates may run through a third protein. Some entries that bind do so weakly or less than the wild type. For some assays here: Tags and fused reporters may be left off the sequences shown.", "data": [{"substance": "GFP-tagged Fny-CMV 1a protein (from UniProt P17769 1-993)", "values": [{"measurement": "binding", "setting": "[1]", "value": "no binding"}]}, {"substance": "LS-CMV 2b protein, C-terminal RFP fusion (from UniProt Q66125 1-100)", "values": [{"measurement": "binding", "setting": "[2]", "value": "binds"}]}, {"substance": "LS-CMV 2b protein, split-YFP fusion for BiFC (from UniProt Q66125 1-100)", "values": [{"measurement": "binding", "setting": "[3]", "value": "binds"}, {"measurement": "binding", "setting": "[4]", "value": "binds"}, {"measurement": "binding", "setting": "[5]", "value": "no binding"}]}]}
